Assay results published in PMC5943507.
These are yes or no findings as the source states them, for the method shown. In cells and extracts the contact can be indirect. Some results given as binding are weak or reduced against the parent protein; the word gives no strength.

Sequences of proteins named here, by UniProt entry; tags and fusion partners are left off.
UniProt P06493: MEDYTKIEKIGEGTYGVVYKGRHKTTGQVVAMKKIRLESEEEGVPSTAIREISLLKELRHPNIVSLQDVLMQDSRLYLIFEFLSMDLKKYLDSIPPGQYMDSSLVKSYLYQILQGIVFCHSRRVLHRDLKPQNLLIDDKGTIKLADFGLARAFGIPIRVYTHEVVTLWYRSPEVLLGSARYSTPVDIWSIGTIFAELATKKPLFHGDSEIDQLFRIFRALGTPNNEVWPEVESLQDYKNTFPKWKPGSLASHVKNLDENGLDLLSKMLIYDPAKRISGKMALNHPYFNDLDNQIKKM
UniProt P38936: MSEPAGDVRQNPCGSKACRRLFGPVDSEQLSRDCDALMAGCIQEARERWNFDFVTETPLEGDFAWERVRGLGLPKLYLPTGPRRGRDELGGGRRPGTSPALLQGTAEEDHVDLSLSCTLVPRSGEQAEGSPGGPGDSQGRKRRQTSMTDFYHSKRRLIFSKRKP

Molecular target: cyclin-dependent kinase 1 (CDK1) (human (endogenous in H460)) (UniProt P06493)
Test: co-IP; 200 µg of cleared cell extract of H460-p21 or H460-pCMV cells; anti-CDK1 antibody (Upstate) or control rabbit IgG; Protein G beads; eluate blotted for CDK1 and p21

binding: binds
Substance: cyclin-dependent kinase inhibitor 1 (p21CIP1) (from UniProt P38936 1-164)
